PubChem BioAssay AID504764, Drosophila RNAi Screening Center – 2011

Test: 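Knock-downs that raise or lower a Notch target reporter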 (primary screen)
Cell system: Drosophila Kc167 cells
Reagents: long dsRNA against Drosophila genes
Time to read-out: about 5 days (4 days dsRNA, then 24 h after transfection)
Treatment: transfection of constitutively active membrane-tethered Notch lacking the extracellular domain, read 24 h later
Measurement: 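Light from a Notch-responsive E(spl)m3 luciferase reporter under active Notch, with control-promoter and no-Notch reporter wells to normalise; raw counts from paired wells a and b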
Scale: induced reporter light, run 1, well a and induced reporter light, run 1, well b: higher = more light from the Notch target reporter with active Notch; control promoter light, run 1, well a and control promoter light, run 1, well b: higher = more light from the viral control promoter (cell number, transfection, viability); uninduced reporter light, run 1, well a: higher = more light from the Notch target reporter without active Notch
Rule for the call: 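Wells with low control signal or poorly matching duplicates excluded; duplicates averaged; per source plate, z beyond ±2 for induced/control log2 ratio or beyond ±1.8 for induced/uninduced marks a hit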
Meaning of the calls: active = modifier hit (raised or lowered Notch signal); inactive = not a hit
The deposit covers about 22,000 reagents; below is an unselected part of those that have a named target and a result. Over the whole deposit, 403 (1.9%) are marked active. 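Unnormalised raw counts per well; ratio z-scores behind the hit calls and whether each hit raises or lowers signal are not deposited.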 The numbers tell different reagents against one gene apart. Names joined by + are all predicted targets of the reagent. Reagent sequences are not shown. Not given: the amount of reagent.

{"gene knocked down": "CG8314", "reagent": 1, "induced reporter light, run 1, well a": 1.15e5, "induced reporter light, run 1, well b": 1.35e5, "control promoter light, run 1, well a": 2.16e5, "control promoter light, run 1, well b": 2.51e5, "uninduced reporter light, run 1, well a": 9845, "Call": "inactive"}
{"gene knocked down": "knrl", "reagent": 1, "induced reporter light, run 1, well a": 1.10e5, "induced reporter light, run 1, well b": 85905, "control promoter light, run 1, well a": 61095, "control promoter light, run 1, well b": 62845, "uninduced reporter light, run 1, well a": 7890, "Call": "inactive"}
{"gene knocked down": "His4:CG33883 + His4:CG33889 + His4:CG33899 + 20 more", "reagent": 1, "induced reporter light, run 1, well a": 53585, "induced reporter light, run 1, well b": 48610, "control promoter light, run 1, well a": 72530, "control promoter light, run 1, well b": 88055, "uninduced reporter light, run 1, well a": 8395, "Call": "inactive"}
{"gene knocked down": "Naa15-16", "reagent": 1, "induced reporter light, run 1, well a": 1.80e5, "induced reporter light, run 1, well b": 1.80e5, "control promoter light, run 1, well a": 3.10e5, "control promoter light, run 1, well b": 3.27e5, "uninduced reporter light, run 1, well a": 15695, "Call": "inactive"}
{"gene knocked down": "Tbc1d8-9", "reagent": 1, "induced reporter light, run 1, well a": 1.41e5, "induced reporter light, run 1, well b": 1.53e5, "control promoter light, run 1, well a": 91430, "control promoter light, run 1, well b": 97400, "uninduced reporter light, run 1, well a": 11630, "Call": "inactive"}
{"gene knocked down": "SdhBL", "reagent": 1, "induced reporter light, run 1, well a": 80190, "induced reporter light, run 1, well b": 91005, "control promoter light, run 1, well a": 95995, "control promoter light, run 1, well b": 1.38e5, "uninduced reporter light, run 1, well a": 10542, "Call": "inactive"}
{"gene knocked down": "CG31871", "reagent": 1, "induced reporter light, run 1, well a": 1.71e5, "induced reporter light, run 1, well b": 1.96e5, "control promoter light, run 1, well a": 87870, "control promoter light, run 1, well b": 1.36e5, "uninduced reporter light, run 1, well a": 19200, "Call": "inactive"}
{"gene knocked down": "CG31871", "reagent": 2, "induced reporter light, run 1, well a": 2.27e5, "induced reporter light, run 1, well b": 2.20e5, "control promoter light, run 1, well a": 1.31e5, "control promoter light, run 1, well b": 1.63e5, "uninduced reporter light, run 1, well a": 26755, "Call": "inactive"}
{"gene knocked down": "eIF1A", "reagent": 1, "induced reporter light, run 1, well a": 68205, "induced reporter light, run 1, well b": 53840, "control promoter light, run 1, well a": 75435, "control promoter light, run 1, well b": 71615, "uninduced reporter light, run 1, well a": 4015, "Call": "inactive"}
{"gene knocked down": "PKD", "reagent": 1, "induced reporter light, run 1, well a": 1.61e5, "induced reporter light, run 1, well b": 1.55e5, "control promoter light, run 1, well a": 1.78e5, "control promoter light, run 1, well b": 1.79e5, "uninduced reporter light, run 1, well a": 10225, "Call": "inactive"}
{"gene knocked down": "AOX1", "reagent": 1, "induced reporter light, run 1, well a": 1.62e5, "induced reporter light, run 1, well b": 1.47e5, "control promoter light, run 1, well a": 1.17e5, "control promoter light, run 1, well b": 1.16e5, "uninduced reporter light, run 1, well a": 11938, "Call": "inactive"}
{"gene knocked down": "CG11317", "reagent": 1, "induced reporter light, run 1, well a": 1.41e5, "induced reporter light, run 1, well b": 1.35e5, "control promoter light, run 1, well a": 1.98e5, "control promoter light, run 1, well b": 2.24e5, "uninduced reporter light, run 1, well a": 10575, "Call": "inactive"}
{"gene knocked down": "CG32773 (retired record)", "reagent": 1, "induced reporter light, run 1, well a": 66845, "induced reporter light, run 1, well b": 62645, "control promoter light, run 1, well a": 67335, "control promoter light, run 1, well b": 84990, "uninduced reporter light, run 1, well a": 4738, "Call": "inactive"}
{"gene knocked down": "PDZ-GEF", "reagent": 1, "induced reporter light, run 1, well a": 1.54e5, "induced reporter light, run 1, well b": 1.34e5, "control promoter light, run 1, well a": 1.54e5, "control promoter light, run 1, well b": 2.18e5, "uninduced reporter light, run 1, well a": 11750, "Call": "inactive"}
{"gene knocked down": "Argl + CG9515", "reagent": 1, "induced reporter light, run 1, well a": 2.84e5, "induced reporter light, run 1, well b": 2.95e5, "control promoter light, run 1, well a": 3.13e5, "control promoter light, run 1, well b": 3.17e5, "uninduced reporter light, run 1, well a": 26545, "Call": "inactive"}
{"gene knocked down": "Argl + CG9515", "reagent": 2, "induced reporter light, run 1, well a": 90900, "induced reporter light, run 1, well b": 1.17e5, "control promoter light, run 1, well a": 81490, "control promoter light, run 1, well b": 1.02e5, "uninduced reporter light, run 1, well a": 17550, "Call": "inactive"}
{"gene knocked down": "Traf4", "reagent": 1, "induced reporter light, run 1, well a": 1.62e5, "induced reporter light, run 1, well b": 1.40e5, "control promoter light, run 1, well a": 1.42e5, "control promoter light, run 1, well b": 1.31e5, "uninduced reporter light, run 1, well a": 9475, "Call": "inactive"}
{"gene knocked down": "Traf4", "reagent": 2, "induced reporter light, run 1, well a": 1.70e5, "induced reporter light, run 1, well b": 2.00e5, "control promoter light, run 1, well a": 1.68e5, "control promoter light, run 1, well b": 1.92e5, "uninduced reporter light, run 1, well a": 12380, "Call": "inactive"}
{"gene knocked down": "sut4", "reagent": 1, "induced reporter light, run 1, well a": 15480, "induced reporter light, run 1, well b": 14440, "control promoter light, run 1, well a": 17885, "control promoter light, run 1, well b": 15450, "uninduced reporter light, run 1, well a": 1295, "Call": "inactive"}
{"gene knocked down": "sv", "reagent": 1, "induced reporter light, run 1, well a": 1.24e5, "induced reporter light, run 1, well b": 1.24e5, "control promoter light, run 1, well a": 2.22e5, "control promoter light, run 1, well b": 2.57e5, "uninduced reporter light, run 1, well a": 10715, "Call": "inactive"}
{"gene knocked down": "Alp6", "reagent": 1, "induced reporter light, run 1, well a": 1.95e5, "induced reporter light, run 1, well b": 1.45e5, "control promoter light, run 1, well a": 1.70e5, "control promoter light, run 1, well b": 1.81e5, "uninduced reporter light, run 1, well a": 14795, "Call": "inactive"}
{"gene knocked down": "sqa", "reagent": 1, "induced reporter light, run 1, well a": 2.56e5, "induced reporter light, run 1, well b": 1.68e5, "control promoter light, run 1, well a": 1.94e5, "control promoter light, run 1, well b": 1.48e5, "uninduced reporter light, run 1, well a": 17070, "Call": "inactive"}
{"gene knocked down": "CG2209", "reagent": 1, "induced reporter light, run 1, well a": 1.08e5, "induced reporter light, run 1, well b": 1.15e5, "control promoter light, run 1, well a": 1.97e5, "control promoter light, run 1, well b": 2.05e5, "uninduced reporter light, run 1, well a": 7742, "Call": "inactive"}
{"gene knocked down": "CG13228", "reagent": 1, "induced reporter light, run 1, well a": 1.32e5, "induced reporter light, run 1, well b": 1.50e5, "control promoter light, run 1, well a": 1.70e5, "control promoter light, run 1, well b": 2.28e5, "uninduced reporter light, run 1, well a": 14330, "Call": "inactive"}

In a second layout: 2 of the entries above.
CG2209 | induced reporter light, run 1, well a = 1.08e5; induced reporter light, run 1, well b = 1.15e5; control promoter light, run 1, well a = 1.97e5; control promoter light, run 1, well b = 2.05e5; uninduced reporter light, run 1, well a = 7742; Call = inactive
CG13228 | induced reporter light, run 1, well a = 1.32e5; induced reporter light, run 1, well b = 1.50e5; control promoter light, run 1, well a = 1.70e5; control promoter light, run 1, well b = 2.28e5; uninduced reporter light, run 1, well a = 14330; Call = inactive
